The target in the test is T1, VEGF-B (human, UniProt P49765-2 22-188, limits assumed).
T1 sequence (looked up): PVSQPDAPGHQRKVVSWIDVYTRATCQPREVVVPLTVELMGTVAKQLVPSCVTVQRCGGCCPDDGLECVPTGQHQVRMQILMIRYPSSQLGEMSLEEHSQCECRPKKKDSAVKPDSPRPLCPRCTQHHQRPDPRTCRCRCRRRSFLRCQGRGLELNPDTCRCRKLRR
The test can be described thus: plate ELISA, growth factor coated.

Amino acid sequences for entries named in this document (tags omitted). Residues count along the entry.
UniProt P17948, residues 27-756: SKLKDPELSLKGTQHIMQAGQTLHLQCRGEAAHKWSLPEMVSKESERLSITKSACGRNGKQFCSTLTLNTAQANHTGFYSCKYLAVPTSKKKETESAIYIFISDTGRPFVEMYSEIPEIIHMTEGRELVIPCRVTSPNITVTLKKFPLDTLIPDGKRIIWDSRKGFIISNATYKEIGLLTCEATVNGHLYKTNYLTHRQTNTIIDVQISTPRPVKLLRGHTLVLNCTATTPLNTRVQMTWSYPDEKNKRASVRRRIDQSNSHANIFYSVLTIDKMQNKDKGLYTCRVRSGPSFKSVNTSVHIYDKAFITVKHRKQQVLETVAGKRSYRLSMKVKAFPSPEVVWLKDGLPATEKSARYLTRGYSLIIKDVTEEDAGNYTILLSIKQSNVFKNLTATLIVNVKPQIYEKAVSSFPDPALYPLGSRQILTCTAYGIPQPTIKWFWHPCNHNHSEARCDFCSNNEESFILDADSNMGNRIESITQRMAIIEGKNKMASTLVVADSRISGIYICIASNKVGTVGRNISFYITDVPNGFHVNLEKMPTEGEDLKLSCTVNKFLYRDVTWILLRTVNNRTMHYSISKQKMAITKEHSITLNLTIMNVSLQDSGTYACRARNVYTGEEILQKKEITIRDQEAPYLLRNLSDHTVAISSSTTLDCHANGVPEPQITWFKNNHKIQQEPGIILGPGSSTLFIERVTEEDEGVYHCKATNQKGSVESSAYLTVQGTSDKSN

Drawing on US20200325187A1 (Genentech, published 2020), this text covers binding for one substance.

No constants are given. Whether binding was seen depends on the method and setting. Some results given as binding are weak or reduced against the parent protein; the word gives no strength.

On to “Flt-1 (from UniProt P17948 27-756) (receptor)”, for which the binding entry is on record as “binds”.
